Here are results for two substances from article PMC4583372.

Protein sequences, listed by entry. Tags and fused reporters are not part of them.
UniProt E1AZ71: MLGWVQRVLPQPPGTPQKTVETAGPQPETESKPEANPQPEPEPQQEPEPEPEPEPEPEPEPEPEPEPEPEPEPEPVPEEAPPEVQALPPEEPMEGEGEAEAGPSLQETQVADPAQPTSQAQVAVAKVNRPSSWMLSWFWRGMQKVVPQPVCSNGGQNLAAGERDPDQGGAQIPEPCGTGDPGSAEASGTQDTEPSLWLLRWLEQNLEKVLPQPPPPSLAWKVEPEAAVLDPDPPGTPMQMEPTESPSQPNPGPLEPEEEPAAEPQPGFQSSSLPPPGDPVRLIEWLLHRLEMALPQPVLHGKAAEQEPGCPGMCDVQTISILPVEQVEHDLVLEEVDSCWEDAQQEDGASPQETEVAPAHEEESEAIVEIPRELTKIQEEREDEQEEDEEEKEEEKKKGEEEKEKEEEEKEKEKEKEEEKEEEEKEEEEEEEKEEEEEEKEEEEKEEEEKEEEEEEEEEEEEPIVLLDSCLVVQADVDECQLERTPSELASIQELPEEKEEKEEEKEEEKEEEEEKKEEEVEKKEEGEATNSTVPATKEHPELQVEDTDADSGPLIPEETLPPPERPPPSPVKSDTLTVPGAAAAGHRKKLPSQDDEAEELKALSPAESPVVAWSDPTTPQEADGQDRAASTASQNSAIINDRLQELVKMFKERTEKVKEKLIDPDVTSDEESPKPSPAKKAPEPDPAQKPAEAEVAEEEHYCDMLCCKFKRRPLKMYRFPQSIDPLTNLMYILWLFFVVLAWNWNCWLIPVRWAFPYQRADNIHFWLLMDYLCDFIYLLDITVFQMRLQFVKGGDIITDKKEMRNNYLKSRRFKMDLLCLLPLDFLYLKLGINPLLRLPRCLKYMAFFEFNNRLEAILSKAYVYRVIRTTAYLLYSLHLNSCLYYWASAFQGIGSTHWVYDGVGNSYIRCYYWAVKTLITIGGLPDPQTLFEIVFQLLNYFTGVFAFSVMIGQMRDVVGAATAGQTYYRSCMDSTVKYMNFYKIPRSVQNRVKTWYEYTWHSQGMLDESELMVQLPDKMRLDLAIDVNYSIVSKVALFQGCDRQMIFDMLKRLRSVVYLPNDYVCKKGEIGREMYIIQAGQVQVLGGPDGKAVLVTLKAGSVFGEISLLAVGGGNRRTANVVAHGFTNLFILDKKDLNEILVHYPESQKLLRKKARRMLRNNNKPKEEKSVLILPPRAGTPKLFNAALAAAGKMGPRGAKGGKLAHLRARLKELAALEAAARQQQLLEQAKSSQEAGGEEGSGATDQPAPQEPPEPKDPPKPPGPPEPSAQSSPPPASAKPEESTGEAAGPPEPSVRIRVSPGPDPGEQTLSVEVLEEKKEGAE
UniProt P32958: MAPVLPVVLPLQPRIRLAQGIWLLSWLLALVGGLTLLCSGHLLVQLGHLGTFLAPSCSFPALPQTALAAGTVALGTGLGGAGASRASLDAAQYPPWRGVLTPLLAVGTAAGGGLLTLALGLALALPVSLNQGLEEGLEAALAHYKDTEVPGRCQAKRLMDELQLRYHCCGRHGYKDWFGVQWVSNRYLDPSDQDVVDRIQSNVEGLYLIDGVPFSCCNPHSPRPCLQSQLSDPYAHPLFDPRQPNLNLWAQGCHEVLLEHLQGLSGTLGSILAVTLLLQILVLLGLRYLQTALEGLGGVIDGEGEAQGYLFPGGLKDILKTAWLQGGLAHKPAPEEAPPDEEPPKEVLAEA

In assay [1] the target is T1, Peripherin-2 also known as RDS (retinal degeneration slow) (mouse (endogenous in retina)) (UniProt P15499).
T1 sequence: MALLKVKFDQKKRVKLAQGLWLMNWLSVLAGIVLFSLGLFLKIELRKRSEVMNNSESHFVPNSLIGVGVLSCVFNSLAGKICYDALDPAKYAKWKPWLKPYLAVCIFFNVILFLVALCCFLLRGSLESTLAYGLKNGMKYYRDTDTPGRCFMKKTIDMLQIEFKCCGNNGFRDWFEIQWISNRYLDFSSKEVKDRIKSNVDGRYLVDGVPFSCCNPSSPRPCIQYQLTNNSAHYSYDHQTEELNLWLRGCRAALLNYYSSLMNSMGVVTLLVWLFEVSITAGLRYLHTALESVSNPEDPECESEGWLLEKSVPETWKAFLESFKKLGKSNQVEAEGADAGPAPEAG
Briefly: affinity purification with mass spectrometry; CHAPS-solubilized membrane pellet of WT mouse retinas; RDS mAB 2E7 or ROM-1 mAB 2H5 chemically linked to sepharose 2B beads, 1 h at 4°C; elution with 1% SDS; LC-MS; rds-/- retinas as negative control.

Assay [2] concerns the target T2, Syntaxin-3 isoform B (Stx3) (mouse (endogenous in retina)) (UniProt Q64704).
T2 sequence: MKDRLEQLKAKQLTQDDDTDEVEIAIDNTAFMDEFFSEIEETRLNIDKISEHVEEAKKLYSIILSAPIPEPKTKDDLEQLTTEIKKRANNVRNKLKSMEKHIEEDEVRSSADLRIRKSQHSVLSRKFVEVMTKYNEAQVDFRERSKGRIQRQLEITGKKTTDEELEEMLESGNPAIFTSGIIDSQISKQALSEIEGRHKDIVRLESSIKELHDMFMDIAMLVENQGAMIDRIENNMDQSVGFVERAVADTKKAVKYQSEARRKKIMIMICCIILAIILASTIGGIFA
Briefly: affinity purification with mass spectrometry; CHAPS-solubilized membrane pellet of WT mouse retinas; anti-Syn3B (Synaptic Systems) and protein A beads overnight at 4°C; elution with 1% SDS; LC-MS; non-specific IgG as negative control.

Results are given in words; binding and its absence hold for the method and conditions named. In cells and extracts the contact can be indirect. A yes stands for co-enrichment or nearness to the bait. Other partners may have been found.

As to “GARP/beta subunit of the rod cyclic nucleotide gated channel (CNGβ) (from UniProt E1AZ71 1-1325)”, the binding result in assay [1] is “binds”.

On to “ROM-1 (rod outer segment protein 1) (from UniProt P32958 1-351)”, for which the binding result in assay [2] and in assay [1] was “binds” in each case.
